In publication PMC7921015, “Spatiotemporal GLP-1 and GIP receptor signaling and trafficking/recycling dynamics induced by selected receptor mono- and dual-agonists” (Molecular Metabolism, 2021):
Results are given in words; binding and its absence hold for the method and conditions named. Binding seen in cells or lysates may run through a third protein.

Protein sequences, listed by entry. Tags and fused reporters are not part of them. Residues count along the entry.
UniProt P43220, residues 24-463: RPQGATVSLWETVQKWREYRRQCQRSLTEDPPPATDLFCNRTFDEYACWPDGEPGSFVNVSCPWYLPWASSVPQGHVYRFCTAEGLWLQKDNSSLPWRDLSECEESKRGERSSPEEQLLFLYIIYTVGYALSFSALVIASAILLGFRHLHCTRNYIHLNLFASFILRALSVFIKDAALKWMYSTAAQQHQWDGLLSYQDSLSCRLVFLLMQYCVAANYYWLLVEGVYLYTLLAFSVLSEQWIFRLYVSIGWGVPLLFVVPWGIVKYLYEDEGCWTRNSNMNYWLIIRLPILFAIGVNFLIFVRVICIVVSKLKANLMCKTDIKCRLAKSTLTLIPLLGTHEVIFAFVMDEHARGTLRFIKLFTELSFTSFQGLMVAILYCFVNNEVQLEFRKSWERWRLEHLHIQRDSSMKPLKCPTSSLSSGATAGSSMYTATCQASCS
UniProt P49407: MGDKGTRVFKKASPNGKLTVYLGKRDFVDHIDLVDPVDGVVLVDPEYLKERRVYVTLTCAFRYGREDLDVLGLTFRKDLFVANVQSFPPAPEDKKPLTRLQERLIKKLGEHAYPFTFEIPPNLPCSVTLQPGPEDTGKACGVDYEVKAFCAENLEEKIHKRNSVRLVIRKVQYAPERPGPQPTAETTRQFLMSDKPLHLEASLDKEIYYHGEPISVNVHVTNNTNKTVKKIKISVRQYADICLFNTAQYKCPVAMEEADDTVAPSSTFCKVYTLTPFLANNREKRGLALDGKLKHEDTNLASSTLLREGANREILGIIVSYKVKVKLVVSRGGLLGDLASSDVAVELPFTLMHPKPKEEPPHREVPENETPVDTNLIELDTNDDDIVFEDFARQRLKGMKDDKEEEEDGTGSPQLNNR
UniProt P32121: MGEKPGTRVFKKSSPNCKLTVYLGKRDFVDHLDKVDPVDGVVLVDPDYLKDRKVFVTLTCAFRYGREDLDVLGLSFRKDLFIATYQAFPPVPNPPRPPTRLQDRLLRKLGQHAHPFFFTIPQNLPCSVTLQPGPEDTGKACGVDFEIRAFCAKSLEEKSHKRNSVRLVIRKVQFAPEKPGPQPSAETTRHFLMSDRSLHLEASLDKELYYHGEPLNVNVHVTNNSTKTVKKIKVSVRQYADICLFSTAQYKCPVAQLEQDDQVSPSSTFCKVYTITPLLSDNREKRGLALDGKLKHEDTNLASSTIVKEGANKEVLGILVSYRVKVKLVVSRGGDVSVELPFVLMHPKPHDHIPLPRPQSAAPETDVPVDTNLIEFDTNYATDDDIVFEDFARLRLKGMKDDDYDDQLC

Target: Human GLP-1R-GFP (human) (UniProt P43220)
Assay: FRET or BRET; as a3, GLP-1R-GFP with β-arrestin1- or β-arrestin2-Rluc8 in live HEK293T, with tirzepatide as the agonist

Substance	binding
β-arrestin 1-Rluc8 (from UniProt P49407 1-418)	no binding (condition: with tirzepatide as the agonist)
β-arrestin 2-Rluc8 (from UniProt P32121 1-409)	no binding (condition: with tirzepatide as the agonist)
